This is one part of the list.
Each sequence was assayed against T1, OsSMF1 (Oryza sativa, UniProt Q6ZLB0 1-436) (assay: protein-binding microarray (RPBM); PBS, 2% BSA, 51.3 ng/ul salmon testes DNA, 50 uM zinc acetate, 200 nM TF, 25 C, 1 h; high values mean tight binding). Conditions: protein: recombinant; tags: N-terminal polyhistidine and DsRed monomer fusion (pET32a); chain copies: 2; label: CyDye5-dUTP incorporated in the synthesized complementary strand; 3' TTTTT single-stranded linker to array surface; dsDNA, one strand shown.
T1 sequence: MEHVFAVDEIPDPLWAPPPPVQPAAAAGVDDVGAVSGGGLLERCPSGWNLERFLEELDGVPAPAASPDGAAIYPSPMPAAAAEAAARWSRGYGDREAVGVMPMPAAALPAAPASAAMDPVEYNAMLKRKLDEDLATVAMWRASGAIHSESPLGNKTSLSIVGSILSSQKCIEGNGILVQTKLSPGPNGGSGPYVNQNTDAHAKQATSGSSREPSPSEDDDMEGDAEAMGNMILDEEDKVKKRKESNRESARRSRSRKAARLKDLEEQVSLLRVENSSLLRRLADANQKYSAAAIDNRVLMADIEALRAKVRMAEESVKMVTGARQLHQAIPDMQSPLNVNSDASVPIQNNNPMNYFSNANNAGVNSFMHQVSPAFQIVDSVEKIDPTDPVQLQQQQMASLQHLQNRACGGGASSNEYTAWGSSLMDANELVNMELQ
Outline: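 An Axon 4000B scanner gave the binding signal as per-feature fluorescence intensity in arbitrary units. This followed washing of a custom Agilent array that had been incubated for 1 h at 25 °C with 200 nM protein in PBS, 2% BSA, salmon testes DNA and 50 µM zinc acetate. The proteins were transcription factors fused at the N-terminus to polyhistidine and DsRed, expressed in E. coli BL21-CodonPlus and purified on Ni–NTA.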

| Sequence | binding signal |
| --- | --- |
| ACTCGGTCCAACCAAACCGGCCGCTAGTACCAATCGCTACCGGAGTCACCTAGTGCAG | 9370 fluorescence intensity (a.u.) |
| GATGGCGTATTTCAATCTTACGTTTCCCACATCTCCTCTCCGGAGTCACCTAGTGCAG | 3810 fluorescence intensity (a.u.) |
| GTTGTTGACCGTGCGTCGCTGGTTCAACGTTGATGGAGTTCGGAGTCACCTAGTGCAG | 3450 fluorescence intensity (a.u.) |
| TGTCTGTCATGTGGGGTACATAGATTGATGGTTGCTGGCTCGGAGTCACCTAGTGCAG | 3250 fluorescence intensity (a.u.) |
| GGCTACCAACACGCGTCGCTGGAGCGACACCACCACGCTGCGGAGTCACCTAGTGCAG | 3750 fluorescence intensity (a.u.) |
| GAGCCCATCTTACCAGCCCAGCAACACTGGCCACCTGGCGCGGAGTCACCTAGTGCAG | 3510 fluorescence intensity (a.u.) |
| TCTGTACTACTTTAAAAGGCTCTGGTGGTGGTGACGGTAACGGAGTCACCTAGTGCAG | 3800 fluorescence intensity (a.u.) |
| CAACCAGGGCCCCATCGCCTTCTCGCTGACATGAACGTCTCGGAGTCACCTAGTGCAG | 3430 fluorescence intensity (a.u.) |
| GAGAATGATGTATGCACGCAGATGACATGGTATGATGAACCGGAGTCACCTAGTGCAG | 4370 fluorescence intensity (a.u.) |
| TTCAGATCTTTTCCCTGATTGATTTGTGGCGTCACAAGTTCGGAGTCACCTAGTGCAG | 7680 fluorescence intensity (a.u.) |
| CTCTCTTAAATCTTTCTGCAAATGCACCGTTTCCAGTCACCGGAGTCACCTAGTGCAG | 4010 fluorescence intensity (a.u.) |
| CCTCAAGATCGCCGCCGCGACCGCCGCCGGCGCGTTGGCGCGGAGTCACCTAGTGCAG | 3660 fluorescence intensity (a.u.) |
| AAGCTGCTCTCCGCCACGCGGCCGTGCTCGTCGACTCGCGCGGAGTCACCTAGTGCAG | 4030 fluorescence intensity (a.u.) |
| GCCACCGTGGTCGTCGACACGCGGAAAGACCAGAGAGGTGCGGAGTCACCTAGTGCAG | 3540 fluorescence intensity (a.u.) |
| TGTTTCCGTGGATTGATGACGTGGTGGGAGGCGCGGGGATCGGAGTCACCTAGTGCAG | 12700 fluorescence intensity (a.u.) |
| AAGTTGGATCAAACAACTCAAAACCCCAGCCCATAGGTTACGGAGTCACCTAGTGCAG | 24100 fluorescence intensity (a.u.) |
| ATGAAACTTTTGACGTGTTCTATTTCTTCAAAAGGTATTCCGGAGTCACCTAGTGCAG | 5350 fluorescence intensity (a.u.) |
| CCTCCCTCCGGCCCCTTGCCTCCACCCACGTCGTCGATCTCGGAGTCACCTAGTGCAG | 4080 fluorescence intensity (a.u.) |
| CACTCCGGCGTGACGGAGCCCTTCCCCGATGTGATGCCTACGGAGTCACCTAGTGCAG | 32600 fluorescence intensity (a.u.) |
| GTGGTACACTAGCAAGTACACGTTGGGCCAAATCTCTCAACGGAGTCACCTAGTGCAG | 4290 fluorescence intensity (a.u.) |
| GTCGCCAACCGTTTTCTCCTCCTCGCTCTCTCCATGTGATCGGAGTCACCTAGTGCAG | 3460 fluorescence intensity (a.u.) |

Individual results from the list:
Entry of GTCGCCAACCGTTTTCTCCTCCTCGCTCTCTCCATGTGATCGGAGTCACCTAGTGCAG under binding signal: 3460 fluorescence intensity (a.u.)
Entry of GTGGTACACTAGCAAGTACACGTTGGGCCAAATCTCTCAACGGAGTCACCTAGTGCAG under binding signal: 4290 fluorescence intensity (a.u.)
Entry of TTCAGATCTTTTCCCTGATTGATTTGTGGCGTCACAAGTTCGGAGTCACCTAGTGCAG under binding signal: 7680 fluorescence intensity (a.u.)

(cont.)

| Sequence | binding signal |
| --- | --- |
| GGTGAGATTCTGGGCTGGACACATCAAATTGACGAGGGCCCGGAGTCACCTAGTGCAG | 3220 fluorescence intensity (a.u.) |
| TCACCTCCACCACCGTTGACGATGACACGCGGTGCGTCGCCGGAGTCACCTAGTGCAG | 4250 fluorescence intensity (a.u.) |
| GAAAAGTTTTAGCGTGTCATATCGGATATATGGACACACACGGAGTCACCTAGTGCAG | 3170 fluorescence intensity (a.u.) |
| ACCTCTCGCCGGCAAATTCCTTGGGGAAGGAAAGGCACTGCGGAGTCACCTAGTGCAG | 3250 fluorescence intensity (a.u.) |
| GCAAGGGGCGCCGGGCGGCGGCCACGTGCAGGGAGACGGACGGAGTCACCTAGTGCAG | 4310 fluorescence intensity (a.u.) |
| ACTATTCTAAACTATAAGGTGACGTCCCATCGATATTTGCCGGAGTCACCTAGTGCAG | 4530 fluorescence intensity (a.u.) |
| AATTAGTCATGTTATGATAGCCGAGAGATGCCGAGGTGGACGGAGTCACCTAGTGCAG | 3770 fluorescence intensity (a.u.) |
| CAGGGGCATTTCCGTAAACTCCCACGTGGCACAGATACGGCGGAGTCACCTAGTGCAG | 13200 fluorescence intensity (a.u.) |
| CTGCCACCACCGTCGCCGCGGCTTACACGTCTTCTTCGCCCGGAGTCACCTAGTGCAG | 6600 fluorescence intensity (a.u.) |
| TCCTGCCACGACTGGACGCTCGCCGCCGCCGCCGACCGCCCGGAGTCACCTAGTGCAG | 3400 fluorescence intensity (a.u.) |
| CGTCTAAATCACGACGTGCAAAAGCTGACGTCACATCTAACGGAGTCACCTAGTGCAG | 14300 fluorescence intensity (a.u.) |
| ACGAACCACGGAGATCTCCACGAACCCTAACGCACCCCGCCGGAGTCACCTAGTGCAG | 3430 fluorescence intensity (a.u.) |
| GTCTCCATCCTTCCCAAACCGCGCCGCCTCTCCCCGTCCCCGGAGTCACCTAGTGCAG | 3380 fluorescence intensity (a.u.) |
| CAGCCACGGCGGCGGTGCGTGGCTGGACGAGGCGAGCGTGCGGAGTCACCTAGTGCAG | 3610 fluorescence intensity (a.u.) |
| AGAGCCGAGGCCCGAATTCCTCCGGTCCTCCTCGTGACCCCGGAGTCACCTAGTGCAG | 15400 fluorescence intensity (a.u.) |
| TTTGTGCAATAATGGGCGCAATAAATTAAAGAAGTTACAACGGAGTCACCTAGTGCAG | 3160 fluorescence intensity (a.u.) |
| TTCATCCTCGGCCACTCCTACGTCAAGGCCAAGAGCGGCTCGGAGTCACCTAGTGCAG | 3600 fluorescence intensity (a.u.) |
| CCCATCATGCATGTATGAGGTGGCGTACGTCCCGTTGCAACGGAGTCACCTAGTGCAG | 4810 fluorescence intensity (a.u.) |
| TATCCAGGCGCACGACACTTGACAACTCTGTACTACGTAGCGGAGTCACCTAGTGCAG | 38900 fluorescence intensity (a.u.) |
| TTTTCTATCACATCGTTTTAATTTCAATCAAACTTCCAATCGGAGTCACCTAGTGCAG | 45300 fluorescence intensity (a.u.) |
| TCCGGGCGTGACACACGATGATTCCACACCCGCCCCACCTCGGAGTCACCTAGTGCAG | 6160 fluorescence intensity (a.u.) |
